PubChem BioAssay AID1224828, NIAID – 2016
Shown is a random part of about 17,000 deposited reagents. 762 of all reagents (4.5%) count as active. 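Active calls include both raised and lowered p65 entry, mostly lowered; wells with fewer than 50 cells lack a z-score.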 The raw values are shown without normalisation.

Assay: 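Regulators linking TLR4 signalling to p65 nuclear translocation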 (primary screen)
Cell system: mouse RAW264.7 G9 macrophage reporter cells (GFP-p65, Tnf promoter-mCherry)
Reagents: siRNA pool against mouse genes, 100 nM
Timing: 2 days siRNA transfection, then 40 min LPS before fixation
Challenge: LPS (Salmonella minnesota R595) at 10 ng/ml
Read-out: 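Microscopy ratio of nuclear to perinuclear-ring GFP-p65 signal, scaled to the plate median; gene score is the average of two replicate robust z-scores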
Direction: p65 translocation robust z-score: higher = more nuclear NF-kappaB p65 after LPS than the plate median; nuclear/cytoplasmic p65 ratio: higher = more nuclear NF-kappaB p65
Active means: 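Called active when z exceeds 3.3 or falls under -1.56 (median of Tlr4 controls), giving activity score of at least 50; no calls for control wells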
Meaning of the calls: active = hit (p65 shift raised or lowered); inactive = no clear change

gene knocked down | PubChem SID | p65 translocation robust z-score | nuclear/cytoplasmic p65 ratio, rep 1 | nuclear/cytoplasmic p65 ratio, rep 2 | low cell count flag | Outcome
Kif5c (kinesin family member 5C) | SID315467627 | -0.62 | 1.35 | 1.34 | enough cells to score | inactive
Cngb3 (cyclic nucleotide gated channel beta 3) | SID315470785 | -0.06 | 1.26 | 1.37 | enough cells to score | inactive
Or6aa1 (olfactory receptor family 6 subfamily AA member 1) | SID315480271 | – | 1.49 | 1.36 | fewer than 50 cells per well; well left out of scoring | inactive
Or5i1 (olfactory receptor family 5 subfamily I member 1) | SID315480296 | 1.01 | 1.58 | 1.81 | enough cells to score | inactive
H2bc26 (H2B clustered histone 26) | SID315481828 | 2.58 | 1.57 | 1.92 | enough cells to score | inactive
Mad2l1bp (MAD2L1 binding protein) | SID315472524 | 2.15 | 2.05 | 1.86 | enough cells to score | inactive
Rab3a (RAB3A, member RAS oncogene family) | SID315468856 | -0.33 | 1.51 | 1.43 | enough cells to score | inactive
Fpgs (folylpolyglutamyl synthetase) | SID315466739 | 0.72 | 1.71 | 1.55 | enough cells to score | inactive
Ahnak (AHNAK nucleoprotein) | SID315472411 | – | 1.25 | 1.3 | fewer than 50 cells per well; well left out of scoring | inactive
Klrc2 (killer cell lectin-like receptor subfamily C, member 2) | SID315467671 | -1.88 | 1.27 | 1.18 | enough cells to score | active
Map3k12 (mitogen-activated protein kinase kinase kinase 12) | SID315470381 | -0.69 | 1.52 | 1.34 | enough cells to score | inactive
Cfap69 (cilia and flagella associated protein 69) | SID315477493 | 0.23 | 1.41 | 1.56 | enough cells to score | inactive
Eif3k (eukaryotic translation initiation factor 3, subunit K) | SID315474788 | 0.84 | 1.47 | 1.53 | enough cells to score | inactive
Cnga2 (cyclic nucleotide gated channel alpha 2) | SID315466026 | 0.5 | 1.6 | 1.94 | enough cells to score | inactive
Muc19 (mucin 19) | SID315479451 | -2.4 | 1.38 | 1.24 | enough cells to score | active
Gnb4 (guanine nucleotide binding protein (G protein), beta 4) | SID315466956 | 0.79 | 1.6 | 1.72 | enough cells to score | inactive
Grm4 (glutamate receptor, metabotropic 4) | SID315480815 | 1.73 | 1.7 | 1.89 | enough cells to score | inactive
Jak3 (Janus kinase 3) | SID315467546 | 0.02 | 1.72 | 1.36 | enough cells to score | inactive
5430414B19Rik (RIKEN cDNA 5430414B19 gene) | SID315474793 | -1.62 | 1.18 | 1.22 | enough cells to score | active
Slc19a1 | SID315469283 | 0.05 | 1.74 | 1.26 | enough cells to score | inactive
Ifi202b (interferon activated gene 202B) | SID315470371 | 0.35 | 1.59 | 1.39 | enough cells to score | inactive
Zyx (zyxin) | SID315470168 | 1.65 | 1.79 | 1.81 | enough cells to score | inactive
Prmt8 (protein arginine N-methyltransferase 8) | SID315481807 | 1.21 | 1.81 | 1.81 | enough cells to score | inactive
Ndufa3 (NADH:ubiquinone oxidoreductase subunit A3) | SID315472208 | 0.09 | 1.81 | 1.6 | enough cells to score | inactive
Rps5 (ribosomal protein S5) | SID315469046 | 0.34 | 1.46 | 1.66 | enough cells to score | inactive
Baiap2l1 (BAI1-associated protein 2-like 1) | SID315472704 | 1.3 | 1.8 | 1.81 | enough cells to score | inactive
Mettl15 (methyltransferase like 15) | SID315475403 | -0.36 | 1.45 | 1.4 | enough cells to score | inactive
Armh4 (armadillo-like helical domain containing 4) | SID315473011 | – | 1.29 | 1.49 | fewer than 50 cells per well; well left out of scoring | inactive
Tex14 (testis expressed gene 14 intercellular bridge forming factor) | SID315475842 | -0.61 | 1.55 | 1.34 | enough cells to score | inactive
Cfap97 (cilia and flagella associated protein 97) | SID315472624 | – | 1.36 | 1.46 | fewer than 50 cells per well; well left out of scoring | inactive
H3c7 (H3 clustered histone 7) | SID315480738 | 2.28 | 1.87 | 1.58 | enough cells to score | inactive
Nkx2-2 (NK2 homeobox 2) | SID315468180 | 0.29 | 1.49 | 1.45 | enough cells to score | inactive
Snip1 (Smad nuclear interacting protein 1) | SID315475379 | 0.2 | 1.6 | 1.56 | enough cells to score | inactive
Laptm4a (lysosomal-associated protein transmembrane 4A) | SID315468023 | 2.67 | 1.84 | 1.88 | enough cells to score | inactive
Pax8 (paired box 8) | SID315468397 | -0.44 | 1.44 | 1.31 | enough cells to score | inactive
Nalf1 (NALCN channel auxiliary factor 1) | SID315480907 | 1.82 | 1.8 | 1.81 | enough cells to score | inactive
Agmo (alkylglycerol monooxygenase) | SID315481145 | -1.28 | 1.15 | 1.42 | enough cells to score | inactive
Zfp750 (zinc finger protein 750) | SID315481110 | 1.25 | 1.5 | 1.75 | enough cells to score | inactive
Hyou1 (hypoxia up-regulated 1) | SID315465704 | -0.22 | 1.42 | 1.34 | enough cells to score | inactive
Sec16a (SEC16 homolog A, endoplasmic reticulum export factor) | SID315478579 | 0.33 | 1.6 | 1.63 | enough cells to score | inactive
Nr2c2 (nuclear receptor subfamily 2, group C, member 2) | SID315469813 | 1.16 | 1.64 | 1.54 | enough cells to score | inactive
Rpl19 (ribosomal protein L19) | SID315469010 | – | 1.06 | 1.09 | fewer than 50 cells per well; well left out of scoring | inactive

Copied from the list:
Cnga2 (cyclic nucleotide gated channel alpha 2) [SID315466026], p65 translocation robust z-score: 0.5
Value of Klrc2 (killer cell lectin-like receptor subfamily C, member 2) [SID315467671] under “low cell count flag”: enough cells to score
Pax8 (paired box 8) [SID315468397], low cell count flag: enough cells to score
Result of Nalf1 (NALCN channel auxiliary factor 1) [SID315480907] in “nuclear/cytoplasmic p65 ratio, rep 1”: 1.8
For “nuclear/cytoplasmic p65 ratio, rep 1”, Mad2l1bp (MAD2L1 binding protein) [SID315472524] reads 2.05
Result for H3c7 (H3 clustered histone 7) [SID315480738] in “Outcome”: inactive

The results go on.
gene knocked down | PubChem SID | p65 translocation robust z-score | nuclear/cytoplasmic p65 ratio, rep 1 | nuclear/cytoplasmic p65 ratio, rep 2 | low cell count flag | Outcome
Hsd17b1 (hydroxysteroid (17-beta) dehydrogenase 1) | SID315467309 | -0.07 | 1.46 | 1.34 | enough cells to score | inactive
Tfb1m (transcription factor B1, mitochondrial) | SID315478344 | -0.7 | 1.41 | 1.49 | enough cells to score | inactive
Tmem176b (transmembrane protein 176B) | SID315472163 | -0.07 | 1.38 | 1.25 | enough cells to score | inactive
Map6d1 (MAP6 domain containing 1) | SID315477518 | 0.31 | 1.78 | 1.73 | enough cells to score | inactive
Cald1 (caldesmon 1) | SID315476831 | -0.05 | 1.6 | 1.76 | enough cells to score | inactive
Msi2 (musashi RNA-binding protein 2) | SID315475352 | 0.79 | 1.9 | 1.72 | enough cells to score | inactive
Pomp (proteasome maturation protein) | SID315472500 | – | 1.23 | 1.17 | fewer than 50 cells per well; well left out of scoring | inactive
Lama4 (laminin, alpha 4) | SID315467721 | 0.02 | 1.51 | 1.36 | enough cells to score | inactive
Frk (fyn-related kinase) | SID315466750 | -0.04 | 1.8 | 1.28 | enough cells to score | inactive
Pgm2 (phosphoglucomutase 2) | SID315472581 | – | 1.08 | 1.05 | fewer than 50 cells per well; well left out of scoring | inactive
Mmp14 (matrix metallopeptidase 14 (membrane-inserted)) | SID315467944 | 0.5 | 1.49 | 1.42 | enough cells to score | inactive
Anln (anillin, actin binding protein) | SID315473623 | 0.23 | 1.69 | 1.61 | enough cells to score | inactive
Mill2 (MHC I like leukocyte 2) | SID315479712 | -0.19 | 1.43 | 1.31 | enough cells to score | inactive
Ptprz1 (protein tyrosine phosphatase receptor type Z, polypeptide 1) | SID315468824 | 0.78 | 1.62 | 1.63 | enough cells to score | inactive
Arhgef38 (Rho guanine nucleotide exchange factor 38) | SID315475497 | 0.53 | 1.73 | 1.66 | enough cells to score | inactive
Sox15 (SRY (sex determining region Y)-box 15) | SID315469384 | -0.84 | 1.38 | 1.49 | enough cells to score | inactive
Rxrg (retinoid X receptor gamma) | SID315469067 | 0.05 | 1.54 | 1.54 | enough cells to score | inactive
Cdca5 (cell division cycle associated 5) | SID315473259 | – | 0 | 1.81 | fewer than 50 cells per well; well left out of scoring | inactive
Fam234a (family with sequence similarity 234, member A) | SID315476550 | -1.32 | 1.43 | 1.46 | enough cells to score | inactive
Msh5 (mutS homolog 5) | SID315467989 | 1 | 1.65 | 1.4 | enough cells to score | inactive
Pgm5 (phosphoglucomutase 5) | SID315478461 | -1.04 | 1.3 | 1.12 | enough cells to score | inactive
4632433K11Rik (RIKEN cDNA 4632433K11 gene) | SID315475437 | -1.53 | 1.08 | 1.1 | enough cells to score | inactive
Isg15 (ISG15 ubiquitin-like modifier) | SID315471083 | 0.33 | 1.59 | 1.55 | enough cells to score | inactive
Arhgap15 (Rho GTPase activating protein 15) | SID315475246 | -1.07 | 1.38 | 1.42 | enough cells to score | inactive
Or9s14 (olfactory receptor family 9 subfamily S member 14) | SID315480161 | 0.39 | 1.8 | 1.36 | enough cells to score | inactive
Hdac4 (histone deacetylase 4) | SID315477551 | -0.84 | 1.45 | 1.52 | enough cells to score | inactive
Ptpn11 (protein tyrosine phosphatase, non-receptor type 11) | SID315468795 | -1 | 1.33 | 1.3 | enough cells to score | inactive
Ovol2 (ovo like zinc finger 2) | SID315476622 | -0.12 | 1.43 | 1.21 | enough cells to score | inactive
Ero1a (endoplasmic reticulum oxidoreductase 1 alpha) | SID315470808 | -0.76 | 1.38 | 1.25 | enough cells to score | inactive
Unc93b1 (unc-93 homolog B1, TLR signaling regulator) | SID315471239 | – | 1.38 | 1.25 | fewer than 50 cells per well; well left out of scoring | inactive
Slc49a4 | SID315478327 | 0.23 | 1.48 | 1.43 | enough cells to score | inactive
Abhd12 (abhydrolase domain containing 12) | SID315475261 | 0.38 | 1.31 | 1.62 | enough cells to score | inactive
Lrch4 | SID315478925 | 1.1 | 1.55 | 1.6 | enough cells to score | inactive
